No constants are given. Whether binding was seen depends on the method and setting. Binding seen in cells or lysates may run through a third protein. Some results given as binding are weak or reduced against the parent protein; the word gives no strength.
Tests used:
[1] = target: beta-transducin repeat containing E3 ubiquitin-protein ligase (βTrCP) (human (endogenous in A549 and H1299)) (UniProt Q9Y297); test: co-IP; endogenous proteins in lysates of control, ISG15 overexpression or ISG15 knockout A549 and H1299 cells; IP with anti-YAP or anti-βTrCP antibodies cross-linked to protein A/G magnetic beads, 4 °C overnight; bait level adjusted to the same protein content; immunoblot
[2] = target: YAP (overexpressed in A549 cells that formed xenograft tumors) (UniProt P46937); test: co-IP; lysates of xenograft tumors formed by WT or ISG15-/- A549 cells with YAP overexpression; YAP level adjusted to the same protein content; immunoblot
[3] = target: Yes-associated protein (YAP) (human (endogenous in A549 and H1299)) (UniProt P46937); test: proximity ligation; Duolink In Situ Red Starter Kit; WT or ISG15-/- A549 cells fixed with 4% PFA; anti-YAP and anti-βTrCP primary antibodies; confocal microscope
YAP^K497R-HA = YAP^K497R-HA (UniProt P46937); test: co-IP; YAP-/- A549 cells reconstituted with YAP^WT-HA or YAP^K497R-HA, with or without ISG15; IP with anti-YAP antibodies; YAP level adjusted to the same protein content; immunoblot
YAP^WT-HA = YAP^WT-HA (UniProt P46937); test: as above
[4] = target: Yes-associated protein (YAP) (human (endogenous in A549 and H1299)) (UniProt P46937); test: co-IP; endogenous proteins in lysates of control, ISG15 overexpression or ISG15 knockout A549 and H1299 cells; IP with anti-YAP or anti-βTrCP antibodies cross-linked to protein A/G magnetic beads, 4 °C overnight; bait level adjusted to the same protein content; immunoblot

The chains behind the UniProt entries cited, without tags or fusion partners.
UniProt Q9Y297: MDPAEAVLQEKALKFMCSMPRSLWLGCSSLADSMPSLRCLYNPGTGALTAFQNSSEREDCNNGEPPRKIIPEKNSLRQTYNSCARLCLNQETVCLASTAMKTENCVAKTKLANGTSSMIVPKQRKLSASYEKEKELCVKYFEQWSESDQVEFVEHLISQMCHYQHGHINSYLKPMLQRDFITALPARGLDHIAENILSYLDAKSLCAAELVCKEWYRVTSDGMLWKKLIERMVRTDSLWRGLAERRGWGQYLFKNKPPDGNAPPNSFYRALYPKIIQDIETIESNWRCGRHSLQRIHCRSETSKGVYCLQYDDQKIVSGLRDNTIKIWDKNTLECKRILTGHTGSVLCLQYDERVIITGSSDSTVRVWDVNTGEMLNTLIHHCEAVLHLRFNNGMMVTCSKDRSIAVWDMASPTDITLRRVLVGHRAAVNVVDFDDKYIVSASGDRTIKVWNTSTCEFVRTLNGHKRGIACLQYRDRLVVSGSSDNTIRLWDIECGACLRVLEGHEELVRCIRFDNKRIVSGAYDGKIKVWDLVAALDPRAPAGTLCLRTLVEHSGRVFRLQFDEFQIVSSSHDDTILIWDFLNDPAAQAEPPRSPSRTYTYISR

Measured: binding

Yes-associated protein (YAP) (from UniProt P46937 1-504)
binds: [1]

beta-transducin repeat containing E3 ubiquitin-protein ligase (βTrCP) (from UniProt Q9Y297 1-605)
not listed: [1]
binds: all other assays above

From publication PMC8837792
